From PubChem BioAssay AID2685 (National Center for Advancing Translational Sciences (NCATS), 2010)
The whole screen tested about 320,000 compounds, of which about 2,100 (0.66%) were called active. Inconclusive means that the source gave no clear call. Such entries were picked first, then a sample of the others. Calls come from the whole dose curve; as a rule, active = well fitted inhibition curve with a large enough effect in the signal ratio, with a control signal flat (not every such curve was filed as active); inconclusive = small, poorly fitted or top-dose-only effect, or effect the other way, or a change in a side signal; inactive = flat fitted curve, though single readings scatter; the % refers to the signal ratio. Potencies of inconclusive entries are doubtful fits and often do not repeat.

assay: qHTS Assay for Lipid Storage Modulators in Drosophila S3 Cells; settings: BODIPY lipid droplet fluorescence, 18-24 h, cells fed with added oleic acid; lipid storage change, negative = inhibition: at 46.1 µM (top of the series) unless noted
Procedure, shortened: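 Laser-scanning cytometry quantifies lipid droplet accumulation (500–530 nm total intensity; droplet/cell object ratio) in oleic acid-fed (400 uM added) Drosophila S3 cells treated with a concentration series. 20 uM Triacsin C defined 100% inhibition.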
% is set by controls: 0 for no effect and ±100 for the full control effect; potency is the fitted concentration of half-maximal effect.

Lipid storage change, negative = inhibition, inconclusive:
COc1ccc(C(=O)Nc2cccc(/C(C)=N/NC(=O)c3ccc([N+](=O)[O-])cc3)c2)cc1OC -2.57%
Cc1c(NC(=O)CSc2ncccn2)c(=O)n(-c2ccccc2)n1C -6.62%
NC(=O)C1CCCN(C(=O)c2ccc(NC(=O)c3cccs3)cc2)C1 (stereo not given) -2.21%
Cc1cc(C)n(-c2nc(SCC(=O)NCC3CCCO3)c3c4c(sc3n2)CCCC4)n1 (stereo not given) -20.8%
COc1cc(C(=O)NCc2cccc(Cl)c2)ccc1OCC(=O)N1CCOCC1 17%
Cc1ccccc1Oc1ccc(NC(=O)C2CC=CCC2C(=O)O)cc1 (stereo not given) 3.81%
CCn1c(=NC(=O)CSC(C)=O)sc2cc(F)ccc21 5.08%
CC(C)CN(c1ccccc1)S(=O)(=O)c1nnc(NC(=O)c2ccco2)s1 3.95%
CCOc1ccc(NC(=O)COc2ccc(C(=O)NCCc3ccccc3)cc2)cc1 12.6%
COc1cccc(CNCCOCCO)c1OC -29.9%
CCc1cc(C(=O)NN2C(=O)NC3(CCCCC3)C2=O)sc1C 58.2%
COc1ccccc1NS(=O)(=O)c1cc(N/C(=N\S(=O)(=O)c2ccccc2)c2ccc(F)cc2)ccc1Cl -29.8%
COC(=O)c1ccc(CSc2nc3ccccc3o2)cc1 33.8%
Cn1cccc1/C=C1\SC(=S)N(NC(=O)c2ccccc2Cl)C1=O 10%
O=C(Nc1nc2c(F)cccc2s1)C1CC1 11.7%
Cc1oc2cc(OCC(=O)O)ccc2c(=O)c1Oc1ccccc1 -24.5%
Cc1ccc(OCC(=O)NCCc2c[nH]c3ccccc23)cc1 35.3%
CC(C)N(C(=O)c1ccccc1-c1ccccc1)C(C)C 157%
COc1ccc(-c2sc3ccccc3c2C#CC2(O)CCCCC2)cc1 38.8%
CC(C)C1N(C(=O)N2CCOCC2)CCN1S(=O)(=O)c1ccccc1 (stereo not given) 244%
O=S(=O)(c1cccc(F)c1)N1CCN(c2ncnc3scc(-c4ccc(F)cc4)c23)CC1 27.2%
CCOC(=O)c1cccc(NC(=O)c2cc3ccccc3o2)c1 -63.5%
O=C(OCC(=O)N1CCN(c2ccccc2)CC1)c1cccc([N+](=O)[O-])c1 30.7%
Cc1nc2cc(C(=O)N3CCN(C)CC3)ccc2n1C 12%
CCOC(=O)C1CN(S(=O)(=O)c2ccc(C)cc2)CCN1S(=O)(=O)c1ccc(C)cc1 (stereo not given) 59.1%
O=C(N/N=C/c1cc([N+](=O)[O-])ccc1O)c1cccc2ccccc12 -24.9%
Cc1ccc(C)c(N2CCN(C(=O)Cn3cccc3)CC2)c1 31.3%
COC(=O)c1c(C)noc1-c1ccc(Cl)cc1 9.09%
CCn1c(SCC(=O)NC2CCCC2)nnc1C(C)NC(=O)c1ccccc1Br (stereo not given) -8.67%
COc1ccc2nc(N=Nc3ccc(N(C)C)cc3)sc2c1 -28.1%
O=C(N/N=C/c1ccccc1OC(=O)c1ccc2c(c1)OCO2)c1ccccc1 19.2%
Cc1cc(C(=O)Nc2ccc(OCc3ccccc3)cc2)c(C)o1 -30.1% [at 0.369 µM]
CC1CCc2cc(F)ccc2N1S(=O)(=O)c1ccc(F)cc1 (stereo not given) -5.26%
CC(=O)c1c(C)[nH]c(C(=O)OCc2ccc(F)cc2Cl)c1C 14.7%
COc1ccc(Cl)cc1NC(=O)C[n+]1cccc(C)c1 14.3%
C=CCNc1nc(Cl)nc(Nc2ccccc2)n1 70.6%
CCCC12C(=O)C(C)(C(c3ccccc3)=C1c1ccccc1)C1C(=O)N(c3ccc(C)cc3)C(=O)C12 (stereo not given) 2.76%
O=C(c1ccccc1)N1N=C(c2ccccc2)CC1c1ccccc1O (stereo not given) -0.0104%
O=C(Nc1ncc([N+](=O)[O-])s1)C1CCN(S(=O)(=O)c2cnc[nH]2)CC1 -3.01%
O=C1CC(=O)CC(c2ccccc2)C1 -16.3%
O=C(Nc1ccccc1Cl)NC1(C(=O)NCC2CCCO2)CCCCC1 (stereo not given) 14.2%
O=C(O)CCCNCc1ccccc1F -3.17%
CCOC(=O)C1CCN(S(=O)(=O)c2ccc(NC(=O)OC)cc2)CC1 -28.5%
Cc1ccc(S(=O)(=O)N2CCOCC2)cc1NC(=O)CSc1ccc(Cl)cc1 6.58%
CN(C)C(CNC(C(=O)Nc1ccc([N+](=O)[O-])cc1Br)c1ccccc1)c1ccccc1 (stereo not given) 0.0268%
COC(=O)[C@@]1(Cc2ccc(OC)cc2)[C@H]2c3cc(C(=O)N(C)C)n(CCc4ccc(OC)c(Br)c4)c3C[C@H]2CN1C(=O)c1ccccc1 -0.0765%

A draw from above in order of molar mass, falling:
Lipid storage change, negative = inhibition, inconclusive:
O=C(Nc1ncc([N+](=O)[O-])s1)C1CCN(S(=O)(=O)c2cnc[nH]2)CC1 -3.01%
COc1ccc(-c2sc3ccccc3c2C#CC2(O)CCCCC2)cc1 38.8%
CC1CCc2cc(F)ccc2N1S(=O)(=O)c1ccc(F)cc1 (stereo not given) -5.26%

Next part:

Lipid storage change, negative = inhibition, inactive:
COc1ccc(NC(=O)CSCc2cc(=O)n3c(C)csc3n2)cc1

Potency, inconclusive:
O=C1c2[nH]nc(-c3ccccc3O)c2C(c2cccc(Cl)c2)N1CC1CCCO1 (stereo not given) 8.2 µM [activator, partial curve, poor fit]
O=C(Nc1ccccc1)Nc1cccc2nsnc12 25.9 µM [falling, single point]
CCn1c(CNC(=O)c2ccco2)nnc1SCC(=O)Nc1ccccc1Cl 18.4 µM [activator, single point]
COc1ccc(-c2ccc(NC(=O)c3ccco3)cc2)nn1 6.51 µM [falling, single point]
O=C(O)CCCCCN1C(=O)C(=O)/C(=C(/O)c2ccccc2)C1c1ccccc1 (stereo not given) 0.0259 µM [falling, full curve, poor fit]
Cc1cc(-n2c(C)cc(C(=O)CSc3ccc4c(c3)OCCO4)c2C)no1 23.1 µM [falling, single point]
O=C(O)c1ccc(Cn2cnc3scc(-c4ccccc4)c3c2=O)cc1 0.146 µM [activator, full curve, poor fit]
COc1ccccc1N1C(=NC(=O)C2CCCCC2)SC2CS(=O)(=O)CC21 (stereo not given) 29.1 µM [activator, single point]
COc1ccc(S(=O)(=O)NC2(C(F)(F)F)NC(=O)N(CCc3ccccc3)C2=O)cc1 (stereo not given) 5.17 µM [falling, single point]
Cc1cccc(NC(=O)C(Cc2ccccc2)c2nn[nH]n2)c1C (stereo not given) 4.11 µM [falling, single point]
O=C(c1cc(-c2ccc(Cl)cc2)n[nH]1)N1CCN(C(=O)c2ccco2)CC1 3.26 µM [activator, single point]
O=C(NCCOc1ccc(F)cc1)C1CCC(=O)N(CCN2CCOCC2)C1 (stereo not given) 0.731 µM [activator, full curve]
O=C(O)CCN1C(=O)/C(=C\c2cccc(OCc3ccccc3)c2)SC1=S 29.1 µM [activator, single point]
Cc1c(N=C/C=C/c2ccccc2)c(=O)n(-c2ccccc2)n1C 0.13 µM [falling, full curve]
CCCCN(C)CCNC(=O)Cn1ncc2c(=O)oc3ccc(C)cc3c21 0.103 µM [falling, full curve, poor fit]
O=C(NCCNc1ccc([N+](=O)[O-])cc1)c1cccs1 23.1 µM [activator, single point]
OCCN(CC#CCC(O)(c1ccccc1)C1CCCC1)CCO (stereo not given) 0.0052 µM [falling, full curve, poor fit]
COc1ccc(NC(=O)CN(c2ccccc2C)S(C)(=O)=O)c(OC)c1 29.1 µM [activator, single point]
CN(C(=O)CSc1ncc(C(F)(F)F)cc1Cl)c1c(N)n(Cc2ccccc2)c(=O)[nH]c1=O 29.1 µM [falling, single point]
CN(C)S(=O)(=O)N1CCN(c2ccccc2Cl)CC1 1.84 µM [falling, partial curve, poor fit]
CCOC(=O)CCCCNC(=O)Nc1ccccc1 4.61 µM [falling, single point]
Nc1c(C(=O)CSc2ccccn2)c(=O)[nH]c(=O)n1C1CC1 7.31 µM [activator, partial curve]
NC(=O)c1ccc[n+](CCC[n+]2cccc(C(N)=O)c2)c1 0.92 µM [falling, full curve, poor fit]
CCOc1ccc(NC(=O)CN2CCN(CC(=O)Nc3ccccc3OC)CC2)cc1 6.51 µM [falling, single point]
Cc1ccc(NC=C(S(=O)(=O)c2ccccc2)S(=O)(=O)c2ccccc2)c(C)c1 0.58 µM [falling, full curve, poor fit]
CC1CCCCC1NC(=O)Cn1cc([N+](=O)[O-])ccc1=O (stereo not given) 5.8 µM [falling, single point]

Potency, active:
O=C(C1=C(O)C(=O)N(CC2CCCO2)C1c1ccccc1Cl)c1ccco1 (stereo not given) 6.51 µM
Cc1ccc(C2=NCCn3c2c2ccc([N+](=O)[O-])cc2[n+]3[O-])cc1 0.58 µM
